Results deposited as PubChem BioAssay AID720505 (Drosophila RNAi Screening Center, 2013).

- Purpose: 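Fly regulators or components of the CRAC channel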 (primary screen)
- System: Drosophila S2R+ cells
- Reagents: long dsRNA against Drosophila genes
- Treatment: thapsigargin (2 µM) in calcium-free buffer to empty internal stores, then 2 mM calcium added back
- Read-out: 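Fluo-4 signal in 384-well plates read on a FLIPR after thapsigargin (2 µM, calcium-free) store depletion and 2 mM calcium add-back; unnormalised mean endpoint per well; screen run twice, selected wells retested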
- Direction: calcium signal and retest calcium signal: higher = more calcium entry after store depletion
- Hit rule: 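About 1500 genes called as lowering calcium entry, by varying amounts, judged against per-plate control wells with STIM1 as positive and Rho1 as negative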
- Calls: active = called as lowering calcium entry; inactive = not called
The deposit covers about 20,000 reagents; below is a random part of those with a known target gene and a result. In the full data, about 2,100 (10%) are marked active. 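Raw plate signals without normalisation; calls rest on control-based scores that were not deposited; replicate 2 separates called from uncalled poorly.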 Reagent sequences are not shown. Not stated in the record: the amount of reagent, the time to read-out.

After knock-down of Zmynd10 [DRSC09826], the screen gave calcium signal, replicate 1 = 88.8; calcium signal, replicate 2 = 86.7; inactive.
CG4607 [DRSC18375] gave calcium signal, replicate 1 = 186; calcium signal, replicate 2 = 155; inactive.
Knock-down of Anp [DRSC14112] gave: calcium signal, replicate 1 = 98.9; calcium signal, replicate 2 = 90.3; inactive.
With knock-down of DIP-theta [DRSC00885], the record shows calcium signal, replicate 1 = 110; calcium signal, replicate 2 = 136; retest calcium signal, replicate 1 = 8547; retest calcium signal, replicate 2 = 153; inactive.
With knock-down of DIP-theta [DRSC02340] the results were calcium signal, replicate 1 = 151; calcium signal, replicate 2 = 96.2; inactive.
Against DIP-theta [DRSC02341], the entry reads calcium signal, replicate 1 = 143; calcium signal, replicate 2 = 89.5; inactive.
BomS1 [DRSC22678] scored calcium signal, replicate 1 = 67; calcium signal, replicate 2 = 151; inactive.
CG31457 [DRSC22935] scored calcium signal, replicate 1 = 92.2; calcium signal, replicate 2 = 163; inactive.
Knock-down of Pcf11 [DRSC05983] gave: calcium signal, replicate 1 = 125; calcium signal, replicate 2 = 83.2; inactive.
Silencing of Mlc-c [DRSC18683] resulted in: calcium signal, replicate 1 = 109; calcium signal, replicate 2 = 91.5; inactive.
Against Gr93d [DRSC21941], the values are calcium signal, replicate 1 = 109; calcium signal, replicate 2 = 215; inactive.
Depletion of Mst87F [DRSC16747] resulted in: calcium signal, replicate 1 = 103; calcium signal, replicate 2 = 153; inactive.
CG4074 [DRSC11752] gave calcium signal, replicate 1 = 100; calcium signal, replicate 2 = 176; inactive.
For edin [DRSC09488] the deposit lists inactive.
With knock-down of Mal-A6 [DRSC07233], the record shows calcium signal, replicate 1 = 177; calcium signal, replicate 2 = 181; inactive.

Quoted from above for reference:
DIP-theta [DRSC02341]: calcium signal, replicate 1 = 143; calcium signal, replicate 2 = 89.5; call = inactive
BomS1 [DRSC22678]: calcium signal, replicate 1 = 67; calcium signal, replicate 2 = 151; call = inactive
CG31457 [DRSC22935]: calcium signal, replicate 1 = 92.2; calcium signal, replicate 2 = 163; call = inactive
Pcf11 [DRSC05983]: calcium signal, replicate 1 = 125; calcium signal, replicate 2 = 83.2; call = inactive

More records:
After knock-down of Mid1 [DRSC04230] the results were calcium signal, replicate 1 = 151; calcium signal, replicate 2 = 208; retest calcium signal, replicate 1 = 140; retest calcium signal, replicate 2 = 119; inactive.
Mid1 [DRSC04231] scored calcium signal, replicate 1 = 104; calcium signal, replicate 2 = 188; inactive.
For Mid1 [DRSC04308] the deposit lists calcium signal, replicate 1 = 102; calcium signal, replicate 2 = 179; inactive.
Mid1 [DRSC22773] gave calcium signal, replicate 1 = 142; calcium signal, replicate 2 = 236; inactive.
Depletion of Mid1 [DRSC22803] gave: calcium signal, replicate 1 = 98.1; calcium signal, replicate 2 = 122; inactive.
Knock-down of Gp210 [DRSC04861] came out at: calcium signal, replicate 1 = 167; calcium signal, replicate 2 = 218; inactive.
Gp210 [DRSC04900] scored calcium signal, replicate 1 = 101; calcium signal, replicate 2 = 158; inactive.
Depletion of CG30037 [DRSC07305] came out at: calcium signal, replicate 1 = 94.2; calcium signal, replicate 2 = 246; inactive.
For t [DRSC17815], the values are calcium signal, replicate 1 = 77.3; calcium signal, replicate 2 = 94.3; inactive.
Silencing of Mrp5 [DRSC15597] resulted in: calcium signal, replicate 1 = 240; calcium signal, replicate 2 = 175; inactive.
For Mrp5 [DRSC15598], the entry reads calcium signal, replicate 1 = 164; calcium signal, replicate 2 = 210; inactive.
With knock-down of CG15073 [DRSC06506] the results were calcium signal, replicate 1 = 195; calcium signal, replicate 2 = 131; inactive.
SP1029 [DRSC16848] gave calcium signal, replicate 1 = 95.3; calcium signal, replicate 2 = 139; inactive.
